These are yes or no findings as the source states them, for the method shown. Binding seen in cells or lysates may run through a third protein. Some binding calls cover weakened binding; strength is not graded here. Where a sequence is shown, tags or fusion partners need not be part of it.
Target: T1, GFP-mGBP2 WT (mouse) (UniProt Q9Z0E6)
T1 sequence: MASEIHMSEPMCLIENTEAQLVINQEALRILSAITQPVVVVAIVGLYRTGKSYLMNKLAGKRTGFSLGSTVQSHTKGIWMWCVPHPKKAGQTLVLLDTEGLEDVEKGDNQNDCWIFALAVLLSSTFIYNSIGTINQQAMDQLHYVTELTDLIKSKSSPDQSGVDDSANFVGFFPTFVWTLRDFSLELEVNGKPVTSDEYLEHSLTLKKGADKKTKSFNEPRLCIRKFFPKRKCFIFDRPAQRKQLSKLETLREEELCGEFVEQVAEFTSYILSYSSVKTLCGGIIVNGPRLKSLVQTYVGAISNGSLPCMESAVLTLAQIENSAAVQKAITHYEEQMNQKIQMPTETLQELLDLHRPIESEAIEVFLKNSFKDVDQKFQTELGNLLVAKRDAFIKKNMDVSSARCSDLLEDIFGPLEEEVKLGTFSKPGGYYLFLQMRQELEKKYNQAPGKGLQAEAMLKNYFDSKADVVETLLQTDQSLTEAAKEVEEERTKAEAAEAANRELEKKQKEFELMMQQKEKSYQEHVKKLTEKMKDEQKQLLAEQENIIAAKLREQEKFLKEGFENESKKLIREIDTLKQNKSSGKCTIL
Assay: co-IP; RFP-Trap or GFP-Trap beads, o/n at 4°C, on lysate supernatants of mGBP2-/- MEFs coexpressing GFP-mGBP2 WT or truncation mutants and mCherry-Gal9; IFN-γ 16 h, T. gondii ME49 4 h, MOI 50; Western blot with α-GFP or α-mCherry

Chains of the proteins cited; added tags and fusions are not shown.
UniProt O08573: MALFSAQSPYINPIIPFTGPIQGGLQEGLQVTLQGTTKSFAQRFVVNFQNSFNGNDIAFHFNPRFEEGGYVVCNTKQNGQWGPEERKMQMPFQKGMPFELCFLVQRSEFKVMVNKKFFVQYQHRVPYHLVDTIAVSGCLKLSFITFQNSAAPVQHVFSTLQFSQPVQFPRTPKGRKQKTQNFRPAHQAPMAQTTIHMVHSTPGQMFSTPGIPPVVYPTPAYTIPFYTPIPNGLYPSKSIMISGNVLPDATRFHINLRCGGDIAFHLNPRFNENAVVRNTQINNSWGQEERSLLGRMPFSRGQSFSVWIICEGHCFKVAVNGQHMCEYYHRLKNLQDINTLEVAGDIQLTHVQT

binding: binds
Substance: mCherry-Gal9 (N-terminal mCherry fusion of Galectin 9) (from UniProt O08573 1-353)

Source: article PMC11761162
